Assay results reported in publication PMC11603163.
Results are given in words; binding and its absence hold for the method and conditions named. Binding seen in cells or lysates may run through a third protein. Some entries that bind do so weakly or less than the wild type. For some of these results: Tags and fused reporters may be left off the sequences shown.

Experiments:
3xHA-CLSY1 (Arabidopsis) = molecular target: T1, 3xHA-CLSY1 (Arabidopsis) (UniProt Q9M297); test: co-IP; anti-HA IP (uMACS HA kit) from flowers of SHH1-3xHA F1 crosses or 3xHA-CLSY1 super-transformed NRPD1-3xF variant lines; western blots
T1 sequence: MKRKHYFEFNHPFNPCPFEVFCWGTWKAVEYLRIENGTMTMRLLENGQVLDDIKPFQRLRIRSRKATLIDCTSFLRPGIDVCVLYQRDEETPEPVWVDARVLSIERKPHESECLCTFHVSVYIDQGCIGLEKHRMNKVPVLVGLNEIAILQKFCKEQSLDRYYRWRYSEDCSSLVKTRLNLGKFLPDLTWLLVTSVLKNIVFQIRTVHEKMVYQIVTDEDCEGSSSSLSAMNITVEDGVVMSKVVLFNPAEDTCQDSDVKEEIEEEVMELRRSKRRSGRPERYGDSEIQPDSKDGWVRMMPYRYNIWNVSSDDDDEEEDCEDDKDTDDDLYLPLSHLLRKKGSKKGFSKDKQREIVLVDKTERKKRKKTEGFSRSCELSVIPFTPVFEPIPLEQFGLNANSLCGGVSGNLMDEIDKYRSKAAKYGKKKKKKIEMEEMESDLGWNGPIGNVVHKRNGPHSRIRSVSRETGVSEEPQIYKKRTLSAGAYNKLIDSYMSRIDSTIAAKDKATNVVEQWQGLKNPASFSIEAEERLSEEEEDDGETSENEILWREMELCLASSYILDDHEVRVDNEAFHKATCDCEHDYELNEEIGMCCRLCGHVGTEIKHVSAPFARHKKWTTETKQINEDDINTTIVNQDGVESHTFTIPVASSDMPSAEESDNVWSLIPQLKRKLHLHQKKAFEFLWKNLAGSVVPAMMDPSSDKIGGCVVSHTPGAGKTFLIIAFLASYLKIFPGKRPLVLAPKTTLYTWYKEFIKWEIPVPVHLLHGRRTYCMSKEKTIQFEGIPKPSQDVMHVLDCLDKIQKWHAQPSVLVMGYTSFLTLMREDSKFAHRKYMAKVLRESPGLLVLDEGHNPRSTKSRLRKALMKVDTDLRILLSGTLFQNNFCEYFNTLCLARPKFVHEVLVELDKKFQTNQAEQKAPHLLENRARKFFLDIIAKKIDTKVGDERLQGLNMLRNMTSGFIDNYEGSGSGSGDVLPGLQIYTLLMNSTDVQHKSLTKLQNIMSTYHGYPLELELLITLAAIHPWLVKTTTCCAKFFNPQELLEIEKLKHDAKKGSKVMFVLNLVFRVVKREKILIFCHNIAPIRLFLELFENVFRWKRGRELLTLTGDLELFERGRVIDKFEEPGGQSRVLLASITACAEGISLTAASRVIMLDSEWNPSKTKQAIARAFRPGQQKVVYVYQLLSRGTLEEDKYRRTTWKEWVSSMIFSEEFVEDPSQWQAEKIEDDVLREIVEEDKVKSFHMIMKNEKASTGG

SHH1-3xHA (Arabidopsis) = molecular target: T2, SHH1-3xHA (Arabidopsis) (UniProt Q9XI47); test: as above
T2 sequence: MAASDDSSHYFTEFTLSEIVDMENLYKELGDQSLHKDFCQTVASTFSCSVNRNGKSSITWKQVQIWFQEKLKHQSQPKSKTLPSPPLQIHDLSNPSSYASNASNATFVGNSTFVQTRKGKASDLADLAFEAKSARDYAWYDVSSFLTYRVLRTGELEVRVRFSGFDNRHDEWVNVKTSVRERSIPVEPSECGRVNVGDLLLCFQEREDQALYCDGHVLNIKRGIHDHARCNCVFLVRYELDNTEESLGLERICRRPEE

RDR2-eGFP (Arabidopsis) = molecular target: T3, RDR2-eGFP (Arabidopsis) (UniProt O82504); test: co-IP; anti-GFP IP (Miltenyi anti-GFP kit) from flowers of RDR2-eGFP F1 crosses to NRPD1-3xF variant lines; western blots
T3 sequence: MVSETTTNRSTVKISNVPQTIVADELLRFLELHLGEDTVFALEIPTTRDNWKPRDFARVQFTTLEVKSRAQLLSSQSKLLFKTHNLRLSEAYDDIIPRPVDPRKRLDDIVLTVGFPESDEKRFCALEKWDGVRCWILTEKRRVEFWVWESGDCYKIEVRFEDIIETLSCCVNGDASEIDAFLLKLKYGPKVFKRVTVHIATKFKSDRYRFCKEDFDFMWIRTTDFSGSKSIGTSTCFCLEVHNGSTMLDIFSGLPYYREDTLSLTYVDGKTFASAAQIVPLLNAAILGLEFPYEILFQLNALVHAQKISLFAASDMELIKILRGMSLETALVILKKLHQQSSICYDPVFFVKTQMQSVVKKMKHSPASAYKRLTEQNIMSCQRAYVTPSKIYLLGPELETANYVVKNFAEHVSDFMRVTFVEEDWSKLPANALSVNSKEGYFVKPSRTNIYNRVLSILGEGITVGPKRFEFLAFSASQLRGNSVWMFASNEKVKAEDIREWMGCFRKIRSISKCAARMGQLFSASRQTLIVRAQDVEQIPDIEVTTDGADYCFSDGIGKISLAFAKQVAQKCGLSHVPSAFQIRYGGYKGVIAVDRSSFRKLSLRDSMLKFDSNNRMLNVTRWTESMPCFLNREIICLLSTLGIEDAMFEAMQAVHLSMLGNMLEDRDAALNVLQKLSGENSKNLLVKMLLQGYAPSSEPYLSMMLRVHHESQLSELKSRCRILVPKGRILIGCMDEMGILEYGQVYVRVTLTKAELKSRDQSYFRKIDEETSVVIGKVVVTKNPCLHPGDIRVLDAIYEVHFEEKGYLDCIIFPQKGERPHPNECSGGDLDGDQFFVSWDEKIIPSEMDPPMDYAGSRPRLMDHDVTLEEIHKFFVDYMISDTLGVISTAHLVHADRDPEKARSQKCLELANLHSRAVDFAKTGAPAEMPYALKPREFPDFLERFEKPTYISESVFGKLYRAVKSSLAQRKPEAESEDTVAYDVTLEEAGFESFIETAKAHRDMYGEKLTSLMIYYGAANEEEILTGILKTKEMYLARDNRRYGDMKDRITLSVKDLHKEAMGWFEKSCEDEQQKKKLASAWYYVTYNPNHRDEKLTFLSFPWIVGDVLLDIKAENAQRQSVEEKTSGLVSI

[1] = molecular target: T4, CLSY3-3xF-BLRP (Arabidopsis) (UniProt F4I8S3); test: co-IP; streptavidin beads (M-280 Dynabeads) capture CLSY3-3xF-BLRP from flower extracts of F1 plants crossed to NRPD1-3xF WT or CYC-AAAA; anti-FLAG western blot; dilution series of the WT co-IP
T4 sequence (chain, biotin on the Biotin Ligase Recognition Peptide): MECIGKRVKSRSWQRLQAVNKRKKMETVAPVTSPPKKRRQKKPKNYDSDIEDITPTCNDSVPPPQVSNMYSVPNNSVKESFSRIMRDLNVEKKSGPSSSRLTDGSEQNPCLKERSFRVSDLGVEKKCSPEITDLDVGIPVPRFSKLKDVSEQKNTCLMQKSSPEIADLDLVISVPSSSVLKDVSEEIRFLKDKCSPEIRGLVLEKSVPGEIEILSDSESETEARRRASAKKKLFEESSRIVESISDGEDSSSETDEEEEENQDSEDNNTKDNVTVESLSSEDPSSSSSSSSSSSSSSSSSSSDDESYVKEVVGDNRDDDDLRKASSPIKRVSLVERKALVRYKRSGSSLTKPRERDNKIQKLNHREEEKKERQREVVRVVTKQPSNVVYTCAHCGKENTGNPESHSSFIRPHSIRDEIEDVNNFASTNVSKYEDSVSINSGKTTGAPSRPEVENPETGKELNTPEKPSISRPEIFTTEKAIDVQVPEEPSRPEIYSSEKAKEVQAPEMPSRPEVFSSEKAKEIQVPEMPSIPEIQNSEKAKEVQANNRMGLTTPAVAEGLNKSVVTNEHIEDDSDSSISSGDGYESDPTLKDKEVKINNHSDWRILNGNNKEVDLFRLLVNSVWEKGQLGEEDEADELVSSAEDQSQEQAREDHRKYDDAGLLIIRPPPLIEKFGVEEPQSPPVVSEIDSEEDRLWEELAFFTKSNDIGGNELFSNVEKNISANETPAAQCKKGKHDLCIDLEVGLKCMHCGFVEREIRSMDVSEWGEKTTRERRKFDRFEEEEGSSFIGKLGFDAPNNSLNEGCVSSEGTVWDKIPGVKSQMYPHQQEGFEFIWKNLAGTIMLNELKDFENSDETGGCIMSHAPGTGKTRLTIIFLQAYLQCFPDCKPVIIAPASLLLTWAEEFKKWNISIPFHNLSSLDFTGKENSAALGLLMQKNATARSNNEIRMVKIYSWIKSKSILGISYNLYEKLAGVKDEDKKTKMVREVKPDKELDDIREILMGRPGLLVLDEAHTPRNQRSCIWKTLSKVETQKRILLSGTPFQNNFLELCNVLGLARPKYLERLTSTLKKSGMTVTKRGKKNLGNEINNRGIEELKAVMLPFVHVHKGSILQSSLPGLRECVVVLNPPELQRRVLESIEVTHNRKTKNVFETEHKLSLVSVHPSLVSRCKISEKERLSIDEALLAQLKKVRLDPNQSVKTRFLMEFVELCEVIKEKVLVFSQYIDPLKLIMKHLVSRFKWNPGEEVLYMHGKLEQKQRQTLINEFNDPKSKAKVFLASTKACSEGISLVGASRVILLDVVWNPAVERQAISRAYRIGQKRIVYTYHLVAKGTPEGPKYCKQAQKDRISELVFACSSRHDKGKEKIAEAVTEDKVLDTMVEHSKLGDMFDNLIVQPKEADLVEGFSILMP

binding (3xHA-CLSY1 (Arabidopsis)): binds
binding (SHH1-3xHA (Arabidopsis)): binds
binding (RDR2-eGFP (Arabidopsis)): binds
binding [1]: binds
B1: NRPD1-3xFWT (protein, UniProt Q9LQ02 1-1453)
chain: MEDDCEELQVPVGTLTSIGFSISNNNDRDKMSVLEVEAPNQVTDSRLGLPNPDSVCRTCGSKDRKVCEGHFGVINFAYSIINPYFLKEVAALLNKICPGCKYIRKKQFQITEDQPERCRYCTLNTGYPLMKFRVTTKEVFRRSGIVVEVNEESLMKLKKRGVLTLPPDYWSFLPQDSNIDESCLKPTRRIITHAQVYALLLGIDQRLIKKDIPMFNSLGLTSFPVTPNGYRVTEIVHQFNGARLIFDERTRIYKKLVGFEGNTLELSSRVMECMQYSRLFSETVSSSKDSANPYQKKSDTPKLCGLRFMKDVLLGKRSDHTFRTVVVGDPSLKLNEIGIPESIAKRLQVSEHLNQCNKERLVTSFVPTLLDNKEMHVRRGDRLVAIQVNDLQTGDKIFRSLMDGDTVLMNRPPSIHQHSLIAMTVRILPTTSVVSLNPICCLPFRGDFDGDCLHGYVPQSIQAKVELDELVALDKQLINRQNGRNLLSLGQDSLTAAYLVNVEKNCYLNRAQMQQLQMYCPFQLPPPAIIKASPSSTEPQWTGMQLFGMLFPPGFDYTYPLNNVVVSNGELLSFSEGSAWLRDGEGNFIERLLKHDKGKVLDIIYSAQEMLSQWLLMRGLSVSLADLYLSSDLQSRKNLTEEISYGLREAEQVCNKQQLMVESWRDFLAVNGEDKEEDSVSDLARFCYERQKSATLSELAVSAFKDAYRDVQALAYRYGDQSNSFLIMSKAGSKGNIGKLVQHSMCIGLQNSAVSLSFGFPRELTCAAWNDPNSPLRGAKGKDSTTTESYVPYGVIENSFLTGLNPLESFVHSVTSRDSSFSGNADLPGTLSRRLMFFMRDIYAAYDGTVRNSFGNQLVQFTYETDGPVEDITGEALGSLSACALSEAAYSALDQPISLLETSPLLNLKNVLECGSKKGQREQTMSLYLSEYLSKKKHGFEYGSLEIKNHLEKLSFSEIVSTSMIIFSPSSNTKVPLSPWVCHFHISEKVLKRKQLSAESVVSSLNEQYKSRNRELKLDIVDLDIQNTNHCSSDDQAMKDDNVCITVTVVEASKHSVLELDAIRLVLIPFLLDSPVKGDQGIKKVNILWTDRPKAPKRNGNHLAGELYLKVTMYGDRGKRNCWTALLETCLPIMDMIDWGRSHPDNIRQCCSVYGIDAGRSIFVANLESAVSDTGKEILREHLLLVADSLSVTGEFVALNAKGWSKQRQVESTPAPFTQACFSSPSQCFLKAAKEGVRDDLQGSIDALAWGKVPGFGTGDQFEIIISPKVHGFTTPVDVYDLLSSTKTMRRTNSAPKSDKATVQPFGLLHSAFLKDIKVLDGKGIPMSLLRTIFTWKNIELLSQSLKRILHSYEINELLNERDEGLVKMVLQLHPNSVEKIGPGVKGIRVAKSKHGDSCCFEVVRIDGTFEDFSYHKCVLGATKIIAPKKMNFYKSKYLKNGTLESGGFSENP
